Assay results as given in PubChem BioAssay AID256 (DTP/NCI, 2004).
The list does not hold the whole screen: it is rich in T/C values a quarter to a half above the control, in often repeated tests (any T/C) and in doses without a T/C. Other doses and runs of a compound stand elsewhere. T/C gives the treated animals as a percentage of the vehicle group. Some doses have a count of surviving animals in place of a T/C: the source files T/C as zero there, which appears to mark a toxic dose or a test without result, not a measured value. Some doses without a T/C left all or most animals alive at the check, yet need not have been tolerated: the source hardly ever lists a survival T/C far under the control, and the zero likely stands for such cases as well. Survivors were counted at the toxicity check, usually on the fifth day, unless a day is given; later deaths do not show. Schedules are NCI's codes, read here as Q, the interval in days (D) or hours (H), X, the number of doses. Some schedule codes hold Z or #, which are not explained here. Some entries hold several experiments; the values are given in rising order. Where survival is the endpoint, the PubChem record calls one and a half times the control and up active, and a quarter to a half above the control has no call in these data; cut-offs in other NCI protocols can differ.

Test system: CD2F1 mice, L1210 leukemia ip, survival T/C
Assay: NCI In Vivo Anticancer Drug Screen. Data for tumor model L1210 Leukemia (intraperitoneal) in CD2F1 (CDF1) mice
Settings: T/C endpoint: mean survival time, higher T/C = longer survival
How it was run: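 Antitumor effect is scored in animals hosting a serially transplanted tumor. Values compare compound-dosed animals against vehicle-only controls as a simple quotient.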

[1] = dose: 200.0 mg/kg/injection, schedule: Q01DX009 (ip), vehicle: saline
[2] = dose: 400.0 mg/kg/injection, schedule: Q04DX003 (ip), vehicle: saline with Tween-80
[3] = dose: 200.0 mg/kg/injection, schedule: Q01DX009 (ip), vehicle: saline with Tween-80
[4] = dose: 400.0 mg/kg/injection, schedule: Q01DX001 (ip), vehicle: saline with Tween-80

CC(/C=N/N(C)C)=N\N(C)C
survivor count [1]: 0 of 6

O=C(N/N=C/c1ccc(O)cc1O)c1cccnc1
survivor count (dose: 200.0 mg/kg/injection, schedule: Q01DX009 (ip), vehicle: olive oil, sesame oil, peanut oil): 3 of 6

COc1cc2c3cc1Oc1c(OC)c(OC)cc4c1C(Cc1ccc(O)c(c1)Oc1ccc(cc1)CC3N(C)CC2)CN(C)C4 (centres undefined)
survivor count [2]: 0 of 6

O=C(Nc1ccc2c3c(ccc(NC(=O)c4ccccc4)c13)C=C2)c1ccccc1
survivor count [3]: 6 of 6

O=[N+]([O-])c1ccc(CCCl)c(CCl)c1
survivor count [2]: 6 of 6

CC(=O)Nc1ccc(S(=O)(=O)/N=C2\C=CC(=O)c3ccccc32)cc1
survivor count [3]: 4 of 6 | survivor count [4]: 0 of 6

O=C(OC1C=CC2CCC1C2)c1ccc([N+](=O)[O-])cc1 (centres undefined)
survivor count [2]: 6 of 6

CC(C)C(O)C(C)[N+](=O)[O-] (centres undefined)
survivor count (dose: 100.0 mg/kg/injection, schedule: Q01DX001 (ip), vehicle: saline with Tween-80): 0 of 3 | survivor count (dose: 200.0 mg/kg/injection, schedule: Q01DX001 (ip), vehicle: saline with Tween-80): 0 of 3 | survivor count [4]: 0 of 3

CO[C@H](C(=O)[C@@H](O)[C@@H](C)O)[C@@H]1Cc2cc3cc(OC4CC(OC5CC(O)C(O)C(C)O5)C(O)C(C)O4)c(C)c(O)c3c(O)c2C(=O)[C@H]1OC1CC(OC2CC(OC3CC(C)(O)C(O)C(C)O3)C(O)C(C)O2)C(O)C(C)O1 (some centres undefined)
survivor count (dose: 1.0 mg/kg/injection, schedule: Q01DX Z (ip), vehicle: saline): 5 of 6 | survivor count (dose: 2.0 mg/kg/injection, schedule: Q01DX009 (ip), vehicle: saline): 0 of 6 | survivor count (dose: 2.0 mg/kg/injection, schedule: Q01DX Z (ip), vehicle: saline): 0 of 6 | survivor count (dose: 4.0 mg/kg/injection, schedule: Q01DX Z (ip), vehicle: saline): 0 of 6

CC1CC(C)(C)NC(CCC2NC(C)(C)CC(C)O2)O1 (centres undefined)
survivor count [3]: 1 of 6 | survivor count (dose: 400.0 mg/kg/injection, schedule: Q01DX009 (ip), vehicle: saline with Tween-80): 0 of 6

CCOC(=O)C(C(=O)OCC)=C1CCC(=O)O1
survivor count (dose: 400.0 mg/kg/injection, schedule: Q04DX002 (ip), vehicle: saline with Tween-80): 2 of 3

COC(=O)C1=CCC[N+](C)(C)C1
survivor count (dose: 12.5 mg/kg/injection, schedule: Q04DX002 (ip), vehicle: saline): 1 of 3 | survivor count (dose: 25.0 mg/kg/injection, schedule: Q04DX002 (ip), vehicle: saline): 0 of 3 | survivor count (dose: 100.0 mg/kg/injection, schedule: Q04DX002 (ip), vehicle: saline): 0 of 3 | survivor count (dose: 200.0 mg/kg/injection, schedule: Q04DX002 (ip), vehicle: saline): 0 of 3 | survivor count (dose: 400.0 mg/kg/injection, schedule: Q04DX002 (ip), vehicle: saline): 0 of 3

CNC=O
T/C [1]: 127 % of control | T/C (dose: 400.0 mg/kg/injection, schedule: Q01DX009 (ip), vehicle: saline): 142 and 148 % of control | T/C (dose: 800.0 mg/kg/injection, schedule: Q01DX009 (ip), vehicle: saline): 129 % of control | survivor count (dose: 3200.0 mg/kg/injection, schedule: Q01DX009 (ip), vehicle: saline): 0 of 6 and 3 of 6

CCN(CC)/C(N)=N\c1nc(C)c2cc(Cl)ccc2n1
survivor count (dose: 200.0 mg/kg/injection, schedule: Q01DX001 (ip), vehicle: saline): 0 of 4 | survivor count (dose: 400.0 mg/kg/injection, schedule: Q01DX001 (ip), vehicle: saline): 0 of 4
